This is an account of results in PMC4753449, “Conformational plasticity of RepB, the replication initiator protein of promiscuous streptococcal plasmid pMV158” (Scientific Reports, 2016).

Test [1] addresses RepB, rolling-circle replication initiator protein of plasmid pMV158 (hexamer) (plasmid pMV158, originally isolated from Streptococcus agalactiae) (UniProt P13921). In words: AUC; RepB6 with metal ions present or absent; data not shown; both purified.
For test [2] the target is unchanged. In words: crystal structure; C2 crystal form of RepB6 co-crystallised with Ba2+; 50 mM TRIS pH 8.5, 100 mM BaCl2, 12% PEG 8K; data to 3.8 Å; both purified.
Test [3] has as its target RepB OBD (origin binding domain, residues 1 to 132) (plasmid pMV158, originally isolated from Streptococcus agalactiae) (UniProt P13921). In words: AUC; sedimentation equilibrium, 20 °C, 20 mM NaH2PO4 pH 7.0, 150 mM NaCl; OBD 10-60 μM at 22,000 rpm, OD 10-100 μM at 13,000 rpm; single-species model; both purified.
Test [4] has the same target. Description: AUC; sedimentation velocity, 48,000 rpm, 20 °C, 20 mM NaH2PO4 pH 7.0, 150 mM NaCl; OBD 10-60 μM, OD 10-100 μM; both purified.

These are yes or no findings as the source states them, for the method shown. Some binding calls cover weakened binding; strength is not graded here.

B1: RepB, rolling-circle replication initiator protein of plasmid pMV158 (hexamer) (natural protein, UniProt P13921 1-210, looked up)
chain: MAKEKARYFTFLLYPESIPSDWELKLETLGVPMAISPLHDKDKSSIKGQKYKKAHYHVLYIAKNPVTADSVRKKIKLLLGEKSLAMVQVVLNVENMYLYLTHESKDAIAKKKHVYDKADIKLINNFDIDRYVTLDVEEKTELFNVVVSLIRAYTLQNIFDLYDFIDENGETYGLTINLVNEVIAGKTGFMKLLFDGAYQRSKRGTKNEER
notes: RepB, replication initiator protein encoded by the promiscuous plasmid pMV158, originally isolated from Streptococcus agalactiae; 24 kDa polypeptide; OBD (N-terminal) and OD (C-terminal) domains; the OD construct ends at residue 210; The final model of 4U87 comprises residues 3-204 of three protomers in the asymmetric unit; also called RepB6; RepB hexamer
Take B1: the binding entry in test [1] and in test [2] was “binds” each time.

B2: RepB OBD (origin binding domain, residues 1 to 132) (domain or fragment, UniProt P13921 1-132)
chain: MAKEKARYFTFLLYPESIPSDWELKLETLGVPMAISPLHDKDKSSIKGQKYKKAHYHVLYIAKNPVTADSVRKKIKLLLGEKSLAMVQVVLNVENMYLYLTHESKDAIAKKKHVYDKADIKLINNFDIDRYV
Turning to B2, the binding entry in test [3] and in test [4] was “no binding (tested: 10–60 μM)” throughout.
